Results published in patent US20250275924A1, “Anticholinergic Agents and Muscarinic Agonists for the Treatment of Demodex Related Conditions” (ATTILLAPS HOLDINGS INC., priority 2022, published 2025).

Tested on: Demodex mites
Assay: in vitro assay of Demodex mite paralysis and/or killing (survival time)
Details: grouping of active agents in the summary; data in FIG. 1A-1E (not reproduced)
Description: FIG. 1A-1E is a table summary of an in vitro assay of various agents on Demodex mites survival time and paralysis.
FIG. 1A-1E is a summary of various agents tested in an in vitro assay of Demodex mite paralysis and/or killing. The efficacy of various agents are evaluated in Demodex characterization and/or survival time experiments, including in terms of LT50 (time at which 50% of Demodex mites are killed) and/or associated time (in hours: min or total minutes). Certain active agents achieve LT50 of 12 hours or less.
In an embodiment, the active agent is characterized as having a LT50 of less than 12 hours, including as confirmed in an in-vitro Demodex assay, including as summarized in FIG. 1A-1E. In an embodiment, the active agent is characterized as having a paralytic activity, including as confirmed in an in-vitro Demodex assay, including as summarized in FIG. 1A-1E.

`CCN(CC)CCOC(=O)C1(C2CCCCC2)CCCCC1` [dicyclomine] was tested, and the “kills Demodex mites” value was “kill Demodex mites”.
